These are yes or no findings as the source states them, for the method shown. Binding seen in cells or lysates may run through a third protein. For part of these data: Binding can be weak; no strength is given. Where a sequence is shown, tags or fusion partners need not be part of it.

Drawing on publication PMC3948876, this text covers binding for two molecules.

Experiment [1] deals with T1, full-length FLAG-human PIASγ (human) (UniProt Q8N2W9).
T1 sequence: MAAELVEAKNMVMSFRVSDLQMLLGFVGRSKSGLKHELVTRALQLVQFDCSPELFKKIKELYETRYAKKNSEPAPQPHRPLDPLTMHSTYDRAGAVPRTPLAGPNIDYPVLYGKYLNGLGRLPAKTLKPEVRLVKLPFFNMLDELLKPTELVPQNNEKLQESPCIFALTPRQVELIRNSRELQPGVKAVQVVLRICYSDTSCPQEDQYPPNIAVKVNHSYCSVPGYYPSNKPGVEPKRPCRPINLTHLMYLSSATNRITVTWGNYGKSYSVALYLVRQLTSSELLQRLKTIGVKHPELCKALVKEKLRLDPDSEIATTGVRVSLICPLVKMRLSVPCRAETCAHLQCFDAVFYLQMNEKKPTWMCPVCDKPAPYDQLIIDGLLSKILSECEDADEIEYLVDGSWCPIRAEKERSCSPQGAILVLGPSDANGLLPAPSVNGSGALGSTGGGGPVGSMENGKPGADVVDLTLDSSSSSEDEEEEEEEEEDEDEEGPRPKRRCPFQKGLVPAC
Kind of experiment: co-IP; reverse: HEK293T co-transfected; anti-FLAG antibody on Protein A agarose; NEM in the lysis buffer; Western blot. A general note: A western blot detects proteins with antibodies after separation by electrophoresis.

Experiment [2] addresses full-length mouse tomosyn-m1 with C-terminal mycHis tag (mouse). Briefly: co-IP; HEK293T co-transfected; anti-myc antibody on Protein A agarose; 20 mM NEM in the lysis buffer; low (100 mM NaCl) and high (500 mM NaCl) salt washes; Western blot.
Experiment [3] shares this target. Kind of experiment: co-IP; HEK293T co-transfected; anti-myc antibody on Protein A agarose; no NEM in the lysis buffer; low and high salt washes; Western blot.

On to “full-length mouse tomosyn-m1 with C-terminal mycHis tag”, for which the binding result in experiment [1] is “binds weakly”.

B1: full-length FLAG-human PIASγ (enzyme, UniProt Q8N2W9 1-510)
chain: MAAELVEAKNMVMSFRVSDLQMLLGFVGRSKSGLKHELVTRALQLVQFDCSPELFKKIKELYETRYAKKNSEPAPQPHRPLDPLTMHSTYDRAGAVPRTPLAGPNIDYPVLYGKYLNGLGRLPAKTLKPEVRLVKLPFFNMLDELLKPTELVPQNNEKLQESPCIFALTPRQVELIRNSRELQPGVKAVQVVLRICYSDTSCPQEDQYPPNIAVKVNHSYCSVPGYYPSNKPGVEPKRPCRPINLTHLMYLSSATNRITVTWGNYGKSYSVALYLVRQLTSSELLQRLKTIGVKHPELCKALVKEKLRLDPDSEIATTGVRVSLICPLVKMRLSVPCRAETCAHLQCFDAVFYLQMNEKKPTWMCPVCDKPAPYDQLIIDGLLSKILSECEDADEIEYLVDGSWCPIRAEKERSCSPQGAILVLGPSDANGLLPAPSVNGSGALGSTGGGGPVGSMENGKPGADVVDLTLDSSSSSEDEEEEEEEEEDEDEEGPRPKRRCPFQKGLVPAC
B1: the binding result in experiment [2] is “binds”; in experiment [3], “no binding (only without NEM in the lysis buffer)”.
